These are yes or no findings as the source states them, for the method shown. Binding seen in cells or lysates may run through a third protein. Some entries that bind do so weakly or less than the wild type. For some of these results: Tags and fused reporters may be left off the sequences shown. Each block holds one molecule with its values, some of them ahead of it.
What was measured:
[1] = biological target: CX50 (connexin 50), endogenous (human (endogenous in HLE cells)) (UniProt P48165); test: co-IP; endogenous proteins in HLE cells; RIPA lysate, antibody 4 h at 4 °C, protein A/G magnetic beads overnight, Western blot
[2] = biological target: HA-tagged full-length ATG16L1 (UniProt Q676U5); test: co-IP; HEK293 cells transfected with ATG16L1-HA and gigaxonin-Flag with increasing amounts of CX50-GFP (24 h), or treated with DMSO or riboflavin for a further 24 h; ATG16L1-HA precipitated by anti-HA / HA affinity gels, Western blot
[3] = biological target: Flag-tagged CX50 (connexin 50) (UniProt P48165); test: co-IP; HEK293T cells co-transfected with Flag-CX50 and HA-ATG16L1 (full length or deletion constructs); RIPA lysate, antibody 4 h at 4 °C, protein A/G magnetic beads overnight, Western blot

Sequences of proteins named here, by UniProt entry; tags and fusion partners are left off.
UniProt P48165: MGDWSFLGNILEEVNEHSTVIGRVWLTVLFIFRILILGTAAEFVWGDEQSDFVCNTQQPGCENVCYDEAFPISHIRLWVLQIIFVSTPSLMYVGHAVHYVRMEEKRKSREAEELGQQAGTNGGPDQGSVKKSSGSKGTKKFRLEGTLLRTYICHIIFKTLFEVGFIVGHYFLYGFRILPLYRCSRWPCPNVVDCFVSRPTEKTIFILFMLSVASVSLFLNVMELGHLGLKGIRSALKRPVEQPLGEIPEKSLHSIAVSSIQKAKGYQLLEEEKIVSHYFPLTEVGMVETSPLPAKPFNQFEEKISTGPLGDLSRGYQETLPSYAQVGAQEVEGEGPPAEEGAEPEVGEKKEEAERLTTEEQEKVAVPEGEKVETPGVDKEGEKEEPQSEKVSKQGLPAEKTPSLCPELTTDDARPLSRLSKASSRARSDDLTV
UniProt Q676U5: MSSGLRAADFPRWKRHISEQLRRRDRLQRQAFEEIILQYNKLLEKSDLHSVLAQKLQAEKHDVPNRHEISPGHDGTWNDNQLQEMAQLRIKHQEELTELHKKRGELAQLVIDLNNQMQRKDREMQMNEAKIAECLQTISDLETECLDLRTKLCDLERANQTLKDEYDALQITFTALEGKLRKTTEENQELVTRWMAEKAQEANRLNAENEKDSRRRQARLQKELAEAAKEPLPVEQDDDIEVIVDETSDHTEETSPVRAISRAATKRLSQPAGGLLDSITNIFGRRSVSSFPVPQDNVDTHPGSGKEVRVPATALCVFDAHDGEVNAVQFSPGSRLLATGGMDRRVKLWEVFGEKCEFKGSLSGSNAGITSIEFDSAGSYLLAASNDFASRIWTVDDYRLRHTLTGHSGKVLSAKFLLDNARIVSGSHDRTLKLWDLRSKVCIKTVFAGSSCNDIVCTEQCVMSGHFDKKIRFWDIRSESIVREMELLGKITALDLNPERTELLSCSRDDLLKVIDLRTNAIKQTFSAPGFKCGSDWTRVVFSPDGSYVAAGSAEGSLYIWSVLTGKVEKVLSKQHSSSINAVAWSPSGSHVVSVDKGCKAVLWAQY

binding [1]: binds
Molecule: ATG16L1, endogenous (from UniProt Q676U5 1-607)

binding [2]: binds
Molecule: CX50-GFP (from UniProt P48165 1-433)

binding [3]: binds
Molecule: HA-tagged full-length ATG16L1 (from UniProt Q676U5 1-607)

binding [2]: binds
B1: gigaxonin-Flag (E3 ubiquitin ligase gigaxonin) (protein, UniProt Q9H2C0 1-597)
chain: MAEGSAVSDPQHAARLLRALSSFREESRFCDAHLVLDGEEIPVQKNILAAASPYIRTKLNYNPPKDDGSTYKIELEGISVMVMREILDYIFSGQIRLNEDTIQDVVQAADLLLLTDLKTLCCEFLEGCIAAENCIGIRDFALHYCLHHVHYLATEYLETHFRDVSSTEEFLELSPQKLKEVISLEKLNVGNERYVFEAVIRWIAHDTEIRKVHMKDVMSALWVSGLDSSYLREQMLNEPLVREIVKECSNIPLSQPQQGEAMLANFKPRGYSECIVTVGGEERVSRKPTAAMRCMCPLYDPNRQLWIELAPLSMPRINHGVLSAEGFLFVFGGQDENKQTLSSGEKYDPDANTWTALPPMNEARHNFGIVEIDGMLYILGGEDGEKELISMECYDIYSKTWTKQPDLTMVRKIGCYAAMKKKIYAMGGGSYGKLFESVECYDPRTQQWTAICPLKERRFGAVACGVAMELYVFGGVRSREDAQGSEMVTCKSEFYHDEFKRWIYLNDQNLCIPASSSFVYGAVPIGASIYVIGDLDTGTNYDYVREFKRSTGTWHHTKPLLPSDLRRTGCAALRIANCKLFRLQLQQGLFRIRVHSP
